The values below come from patent US20090048117A1, “MODULATION OF IMMUNE SYSTEM FUNCTION BY MODULATION OF POLYPEPTIDE ARGININE METHYLTRANSFERASES” (President and Fellows of Harvard College, priority 2003, published 2009).

The chains behind the UniProt entries cited, without tags or fusion partners. Where a name states a change or a piece, a line headed by the entry shows the natural chain unless it says otherwise.
UniProt Q99873: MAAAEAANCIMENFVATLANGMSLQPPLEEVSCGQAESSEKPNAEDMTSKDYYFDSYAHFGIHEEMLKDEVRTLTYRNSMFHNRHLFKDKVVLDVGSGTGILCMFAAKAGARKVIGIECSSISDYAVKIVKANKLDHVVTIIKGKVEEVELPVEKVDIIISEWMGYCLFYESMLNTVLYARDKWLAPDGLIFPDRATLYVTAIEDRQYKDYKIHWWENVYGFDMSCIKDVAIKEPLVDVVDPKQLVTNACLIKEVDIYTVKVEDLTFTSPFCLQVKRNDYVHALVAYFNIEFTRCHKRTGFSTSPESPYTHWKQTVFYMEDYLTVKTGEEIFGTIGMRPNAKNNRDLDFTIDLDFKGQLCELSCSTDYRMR
UniProt Q9JIF0: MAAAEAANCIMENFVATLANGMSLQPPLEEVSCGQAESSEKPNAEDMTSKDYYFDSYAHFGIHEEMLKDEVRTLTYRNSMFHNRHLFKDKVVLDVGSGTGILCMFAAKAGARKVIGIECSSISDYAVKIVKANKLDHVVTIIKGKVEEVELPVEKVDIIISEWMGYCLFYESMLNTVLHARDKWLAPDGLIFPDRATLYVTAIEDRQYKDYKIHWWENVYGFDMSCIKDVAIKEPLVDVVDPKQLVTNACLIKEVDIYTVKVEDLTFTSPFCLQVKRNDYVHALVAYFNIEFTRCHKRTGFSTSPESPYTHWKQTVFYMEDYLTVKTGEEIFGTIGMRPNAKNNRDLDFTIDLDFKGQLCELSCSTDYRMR

The target of experiment [1] is PRMT1 of Jurkat cell lysates (human) (UniProt Q99873). Put plainly: GST pull-down of Jurkat cell lysates, immunoblot with a monoclonal PRMT1 antibody. In general terms: A western blot detects proteins with antibodies after separation by electrophoresis.
Experiment [2] concerns the target T1, HA-tagged NFATc2.
T1 sequence: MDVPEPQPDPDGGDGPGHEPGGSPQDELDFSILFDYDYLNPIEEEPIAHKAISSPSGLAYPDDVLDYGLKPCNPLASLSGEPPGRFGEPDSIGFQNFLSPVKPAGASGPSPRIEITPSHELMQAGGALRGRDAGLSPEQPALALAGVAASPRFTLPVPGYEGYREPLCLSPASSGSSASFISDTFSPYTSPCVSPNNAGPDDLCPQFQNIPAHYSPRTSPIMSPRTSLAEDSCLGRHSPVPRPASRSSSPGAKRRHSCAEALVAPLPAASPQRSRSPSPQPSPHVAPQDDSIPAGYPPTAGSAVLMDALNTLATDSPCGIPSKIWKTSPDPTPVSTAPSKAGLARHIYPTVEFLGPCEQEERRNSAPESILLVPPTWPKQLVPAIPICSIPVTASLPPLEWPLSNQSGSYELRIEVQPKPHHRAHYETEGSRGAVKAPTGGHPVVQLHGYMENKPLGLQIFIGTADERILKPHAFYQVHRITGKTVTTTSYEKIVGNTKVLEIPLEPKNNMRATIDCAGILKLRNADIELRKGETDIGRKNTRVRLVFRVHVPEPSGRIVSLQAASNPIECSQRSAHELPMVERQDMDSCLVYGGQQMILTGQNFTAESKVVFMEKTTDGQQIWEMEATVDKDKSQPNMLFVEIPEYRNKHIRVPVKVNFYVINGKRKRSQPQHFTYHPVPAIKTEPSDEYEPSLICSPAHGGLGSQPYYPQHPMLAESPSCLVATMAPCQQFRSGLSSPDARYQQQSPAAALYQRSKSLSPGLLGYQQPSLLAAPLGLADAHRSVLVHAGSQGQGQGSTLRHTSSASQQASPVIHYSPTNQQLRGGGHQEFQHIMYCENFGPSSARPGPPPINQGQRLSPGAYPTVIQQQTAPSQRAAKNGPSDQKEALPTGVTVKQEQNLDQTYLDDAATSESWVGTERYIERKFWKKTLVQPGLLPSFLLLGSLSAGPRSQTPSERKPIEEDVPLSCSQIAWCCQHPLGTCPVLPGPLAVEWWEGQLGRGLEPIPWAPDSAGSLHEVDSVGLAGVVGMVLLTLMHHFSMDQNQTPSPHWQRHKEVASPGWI
Put plainly: pull-down of HA-NFATc2-transfected Jurkat cell lysates with recombinant protein; full-length NIP45 is the reference.

Experiment [3] deals with PRMT1 (form of the construct not stated) (murine) (UniProt Q9JIF0). As to the kind of experiment: association assay not described; ternary complex.
Experiment [4] addresses T2, NFATc2 (form of the construct not stated).
T2 sequence: T1 sequence
As to the kind of experiment: association assay not described; ternary complex.

In experiment [5] the target is T1, HA-tagged NFATc2. As to the kind of experiment: co-immunoprecipitation with anti-Myc agarose from transfected 293T cells left untreated or treated with 1 mM MTA, anti-HA immunoblot.
Experiment [6] has as its target T1, HA-tagged NFATc2. Put plainly: co-immunoprecipitation with anti-Myc agarose from transfected 293 cells left untreated or treated with 1 mM MTA, anti-HA immunoblot.
Experiment [7] deals with T3, endogenous NFATp of HepG2 cells (UniProt Q13469).
T3 sequence (looked up): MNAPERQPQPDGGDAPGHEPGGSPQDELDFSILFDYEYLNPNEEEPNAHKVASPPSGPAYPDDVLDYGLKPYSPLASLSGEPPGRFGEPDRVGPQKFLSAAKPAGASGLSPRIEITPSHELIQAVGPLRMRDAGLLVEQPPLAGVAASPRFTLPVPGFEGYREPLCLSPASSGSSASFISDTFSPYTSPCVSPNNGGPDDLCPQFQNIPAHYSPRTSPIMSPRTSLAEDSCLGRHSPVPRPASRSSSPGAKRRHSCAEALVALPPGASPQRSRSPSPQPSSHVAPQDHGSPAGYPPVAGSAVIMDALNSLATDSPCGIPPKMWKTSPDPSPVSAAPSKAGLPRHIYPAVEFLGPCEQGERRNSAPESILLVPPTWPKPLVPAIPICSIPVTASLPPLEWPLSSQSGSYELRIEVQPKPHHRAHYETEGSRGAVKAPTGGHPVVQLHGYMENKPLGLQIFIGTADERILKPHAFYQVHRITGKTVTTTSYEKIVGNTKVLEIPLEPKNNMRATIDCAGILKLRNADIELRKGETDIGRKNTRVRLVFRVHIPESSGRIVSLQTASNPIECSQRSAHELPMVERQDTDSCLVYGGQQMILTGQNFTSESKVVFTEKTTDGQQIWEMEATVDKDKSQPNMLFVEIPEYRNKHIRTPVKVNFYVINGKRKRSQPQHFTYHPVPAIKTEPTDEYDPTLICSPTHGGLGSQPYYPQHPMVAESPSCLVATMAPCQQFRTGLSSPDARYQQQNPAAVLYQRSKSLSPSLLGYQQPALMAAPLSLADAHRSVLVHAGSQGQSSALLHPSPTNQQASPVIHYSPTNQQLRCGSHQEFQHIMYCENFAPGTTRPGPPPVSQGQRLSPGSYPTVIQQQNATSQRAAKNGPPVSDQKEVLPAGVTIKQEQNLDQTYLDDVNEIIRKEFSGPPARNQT
Put plainly: co-immunoprecipitation with anti-NFATp antibody from HepG2 cells transfected with NIP45-HA only, anti-HA Western blot.

In a further experiment the target is HA-tagged PRMT1 (murine) (UniProt Q9JIF0). Put plainly: co-immunoprecipitation with anti-Flag agarose from transfected 293T cells, anti-HA immunoblot.

Results are given in words; binding and its absence hold for the method and conditions named. For some assays here: Binding seen in cells or lysates may run through a third protein. Some binding calls cover weakened binding; strength is not graded here. For some assays here: Where a sequence is shown, tags or fusion partners need not be part of it.

B1: GST-NIP45 fusion protein (bacterially expressed, full length NIP45) (protein, not shown: a dimerising Fc or GST)
chain: MAEPLRGRGPRSRGGRGARRARGARGRCPRARQSPARLIPDTVLVDLVSDSDEEVLEVADPVEVPVARLPAPAKPEQDSDSDSEGAAEGPAGAPRTLVRRRRRRLLDPGEAPVVPVYSGKVQSSLNLIPDNSSLLKLCPSEPEDEADLTNSGSSPSEDDALPSGSPWRKKLRKKCEKEEKKMEEFPDQDISPLPQPSSRNKSRKHTEALQKLREVNKRLQDLRSCLSPKQHQSPALQSTDDEVVLVEGPVLPQSSRLFTLKIRCRADLVRLPVRMSEPLQNVVDHMANHLGVSPNRILLLFGESELSPTATPSTLKLGVADIIDCVVLASSSEATETSQELRLRVQGKEKHQMLEISLSPDSPLKVLMSHYEEAMGLSGHKLSFFFDGTKLSGKELPADLGLESGDLIEVWG
Consider B1, for which the binding entry (in experiment [1]; with HA-tagged NFATc2 [2]) was “binds” in each case.

B2: NIP45 expressed from a NIP45 expression plasmid (protein)
chain: B1 chain
Regarding B2, the binding entry in experiment [3] and in experiment [4] was “binds” throughout.

B3: cMyc-tagged NIP45 (NIP45-MycHis) (protein, not shown: small tags and cut ends)
chain: B1 chain
As for B3, the binding entry with HA-tagged NFATc2 [5] and with HA-tagged NFATc2 [6] was “binds” throughout.

B4: HA-tagged NIP45 polypeptide (expression vector NIP45-HA, pCEP4-HA) (protein, not shown: small tags and cut ends)
chain: B1 chain
As for B4, in experiment [7], the binding entry is “binds”.

B5: Flag-tagged NIP45 (full length) (protein, not shown: small tags and cut ends)
chain: B1 chain
On to B5, for which the binding entry with HA-tagged PRMT1 (murine) is “binds”.
